Source: patent US20130012506A1 (priority 2010, published 2013)
Some results were stated once for a whole list of compounds, not compound by compound.

Test system: M. tuberculosis H37Rv-GFP inside Raw264.7 macrophages

Compound | mean infection ratio
NNC(=O)c1ccncc1 [INH, isoniazid] | below 20%
CO[C@H]1/C=C/O[C@@]2(C)Oc3c(C)c(O)c4c(O)c(c(/C=N/N5CCN(C)CC5)c(O)c4c3C2=O)NC(=O)/C(C)=C\C=C\[C@H](C)[C@H](O)[C@@H](C)[C@@H](O)[C@@H](C)[C@H](OC(C)=O)[C@@H]1C [rifampin] | below 20%
